Laboratory results as given in the supplement of paper PMC10849652.
This is one part of the list.

Chains of the proteins cited; added tags and fusions are not shown. Lines headed by an entry give the natural chain unless they say otherwise; changes in a name come on top.
UniProt Q6IAN0: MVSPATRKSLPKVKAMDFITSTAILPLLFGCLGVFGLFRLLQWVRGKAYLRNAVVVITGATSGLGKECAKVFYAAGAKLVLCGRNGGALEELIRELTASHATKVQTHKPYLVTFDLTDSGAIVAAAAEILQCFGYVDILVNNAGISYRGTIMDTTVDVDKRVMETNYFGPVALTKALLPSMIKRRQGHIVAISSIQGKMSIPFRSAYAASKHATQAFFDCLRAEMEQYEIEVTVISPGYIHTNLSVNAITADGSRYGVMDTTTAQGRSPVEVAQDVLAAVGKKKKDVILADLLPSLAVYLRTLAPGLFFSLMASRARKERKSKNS
UniProt Q9BU89: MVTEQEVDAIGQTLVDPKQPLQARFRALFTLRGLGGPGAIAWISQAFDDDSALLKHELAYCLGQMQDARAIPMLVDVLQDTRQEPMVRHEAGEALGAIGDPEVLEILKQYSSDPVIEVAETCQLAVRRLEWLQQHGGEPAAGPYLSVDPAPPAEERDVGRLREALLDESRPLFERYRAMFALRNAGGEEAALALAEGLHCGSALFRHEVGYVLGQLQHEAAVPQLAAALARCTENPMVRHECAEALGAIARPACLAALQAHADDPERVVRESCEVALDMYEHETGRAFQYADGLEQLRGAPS
UniProt Q13217: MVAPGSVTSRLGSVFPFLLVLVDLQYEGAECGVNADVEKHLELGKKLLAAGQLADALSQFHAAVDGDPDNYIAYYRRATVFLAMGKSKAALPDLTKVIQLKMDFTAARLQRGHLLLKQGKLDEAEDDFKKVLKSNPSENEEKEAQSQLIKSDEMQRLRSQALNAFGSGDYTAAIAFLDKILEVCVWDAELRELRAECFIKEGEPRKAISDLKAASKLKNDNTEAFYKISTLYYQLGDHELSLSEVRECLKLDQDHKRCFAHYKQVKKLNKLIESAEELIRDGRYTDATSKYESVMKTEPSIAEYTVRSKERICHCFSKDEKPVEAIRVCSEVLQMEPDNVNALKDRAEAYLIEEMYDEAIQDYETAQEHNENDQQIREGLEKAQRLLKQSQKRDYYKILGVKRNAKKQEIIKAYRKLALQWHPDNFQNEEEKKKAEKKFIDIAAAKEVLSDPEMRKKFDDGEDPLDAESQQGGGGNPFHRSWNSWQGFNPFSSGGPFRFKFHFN
UniProt P11532, whole entry, looked up: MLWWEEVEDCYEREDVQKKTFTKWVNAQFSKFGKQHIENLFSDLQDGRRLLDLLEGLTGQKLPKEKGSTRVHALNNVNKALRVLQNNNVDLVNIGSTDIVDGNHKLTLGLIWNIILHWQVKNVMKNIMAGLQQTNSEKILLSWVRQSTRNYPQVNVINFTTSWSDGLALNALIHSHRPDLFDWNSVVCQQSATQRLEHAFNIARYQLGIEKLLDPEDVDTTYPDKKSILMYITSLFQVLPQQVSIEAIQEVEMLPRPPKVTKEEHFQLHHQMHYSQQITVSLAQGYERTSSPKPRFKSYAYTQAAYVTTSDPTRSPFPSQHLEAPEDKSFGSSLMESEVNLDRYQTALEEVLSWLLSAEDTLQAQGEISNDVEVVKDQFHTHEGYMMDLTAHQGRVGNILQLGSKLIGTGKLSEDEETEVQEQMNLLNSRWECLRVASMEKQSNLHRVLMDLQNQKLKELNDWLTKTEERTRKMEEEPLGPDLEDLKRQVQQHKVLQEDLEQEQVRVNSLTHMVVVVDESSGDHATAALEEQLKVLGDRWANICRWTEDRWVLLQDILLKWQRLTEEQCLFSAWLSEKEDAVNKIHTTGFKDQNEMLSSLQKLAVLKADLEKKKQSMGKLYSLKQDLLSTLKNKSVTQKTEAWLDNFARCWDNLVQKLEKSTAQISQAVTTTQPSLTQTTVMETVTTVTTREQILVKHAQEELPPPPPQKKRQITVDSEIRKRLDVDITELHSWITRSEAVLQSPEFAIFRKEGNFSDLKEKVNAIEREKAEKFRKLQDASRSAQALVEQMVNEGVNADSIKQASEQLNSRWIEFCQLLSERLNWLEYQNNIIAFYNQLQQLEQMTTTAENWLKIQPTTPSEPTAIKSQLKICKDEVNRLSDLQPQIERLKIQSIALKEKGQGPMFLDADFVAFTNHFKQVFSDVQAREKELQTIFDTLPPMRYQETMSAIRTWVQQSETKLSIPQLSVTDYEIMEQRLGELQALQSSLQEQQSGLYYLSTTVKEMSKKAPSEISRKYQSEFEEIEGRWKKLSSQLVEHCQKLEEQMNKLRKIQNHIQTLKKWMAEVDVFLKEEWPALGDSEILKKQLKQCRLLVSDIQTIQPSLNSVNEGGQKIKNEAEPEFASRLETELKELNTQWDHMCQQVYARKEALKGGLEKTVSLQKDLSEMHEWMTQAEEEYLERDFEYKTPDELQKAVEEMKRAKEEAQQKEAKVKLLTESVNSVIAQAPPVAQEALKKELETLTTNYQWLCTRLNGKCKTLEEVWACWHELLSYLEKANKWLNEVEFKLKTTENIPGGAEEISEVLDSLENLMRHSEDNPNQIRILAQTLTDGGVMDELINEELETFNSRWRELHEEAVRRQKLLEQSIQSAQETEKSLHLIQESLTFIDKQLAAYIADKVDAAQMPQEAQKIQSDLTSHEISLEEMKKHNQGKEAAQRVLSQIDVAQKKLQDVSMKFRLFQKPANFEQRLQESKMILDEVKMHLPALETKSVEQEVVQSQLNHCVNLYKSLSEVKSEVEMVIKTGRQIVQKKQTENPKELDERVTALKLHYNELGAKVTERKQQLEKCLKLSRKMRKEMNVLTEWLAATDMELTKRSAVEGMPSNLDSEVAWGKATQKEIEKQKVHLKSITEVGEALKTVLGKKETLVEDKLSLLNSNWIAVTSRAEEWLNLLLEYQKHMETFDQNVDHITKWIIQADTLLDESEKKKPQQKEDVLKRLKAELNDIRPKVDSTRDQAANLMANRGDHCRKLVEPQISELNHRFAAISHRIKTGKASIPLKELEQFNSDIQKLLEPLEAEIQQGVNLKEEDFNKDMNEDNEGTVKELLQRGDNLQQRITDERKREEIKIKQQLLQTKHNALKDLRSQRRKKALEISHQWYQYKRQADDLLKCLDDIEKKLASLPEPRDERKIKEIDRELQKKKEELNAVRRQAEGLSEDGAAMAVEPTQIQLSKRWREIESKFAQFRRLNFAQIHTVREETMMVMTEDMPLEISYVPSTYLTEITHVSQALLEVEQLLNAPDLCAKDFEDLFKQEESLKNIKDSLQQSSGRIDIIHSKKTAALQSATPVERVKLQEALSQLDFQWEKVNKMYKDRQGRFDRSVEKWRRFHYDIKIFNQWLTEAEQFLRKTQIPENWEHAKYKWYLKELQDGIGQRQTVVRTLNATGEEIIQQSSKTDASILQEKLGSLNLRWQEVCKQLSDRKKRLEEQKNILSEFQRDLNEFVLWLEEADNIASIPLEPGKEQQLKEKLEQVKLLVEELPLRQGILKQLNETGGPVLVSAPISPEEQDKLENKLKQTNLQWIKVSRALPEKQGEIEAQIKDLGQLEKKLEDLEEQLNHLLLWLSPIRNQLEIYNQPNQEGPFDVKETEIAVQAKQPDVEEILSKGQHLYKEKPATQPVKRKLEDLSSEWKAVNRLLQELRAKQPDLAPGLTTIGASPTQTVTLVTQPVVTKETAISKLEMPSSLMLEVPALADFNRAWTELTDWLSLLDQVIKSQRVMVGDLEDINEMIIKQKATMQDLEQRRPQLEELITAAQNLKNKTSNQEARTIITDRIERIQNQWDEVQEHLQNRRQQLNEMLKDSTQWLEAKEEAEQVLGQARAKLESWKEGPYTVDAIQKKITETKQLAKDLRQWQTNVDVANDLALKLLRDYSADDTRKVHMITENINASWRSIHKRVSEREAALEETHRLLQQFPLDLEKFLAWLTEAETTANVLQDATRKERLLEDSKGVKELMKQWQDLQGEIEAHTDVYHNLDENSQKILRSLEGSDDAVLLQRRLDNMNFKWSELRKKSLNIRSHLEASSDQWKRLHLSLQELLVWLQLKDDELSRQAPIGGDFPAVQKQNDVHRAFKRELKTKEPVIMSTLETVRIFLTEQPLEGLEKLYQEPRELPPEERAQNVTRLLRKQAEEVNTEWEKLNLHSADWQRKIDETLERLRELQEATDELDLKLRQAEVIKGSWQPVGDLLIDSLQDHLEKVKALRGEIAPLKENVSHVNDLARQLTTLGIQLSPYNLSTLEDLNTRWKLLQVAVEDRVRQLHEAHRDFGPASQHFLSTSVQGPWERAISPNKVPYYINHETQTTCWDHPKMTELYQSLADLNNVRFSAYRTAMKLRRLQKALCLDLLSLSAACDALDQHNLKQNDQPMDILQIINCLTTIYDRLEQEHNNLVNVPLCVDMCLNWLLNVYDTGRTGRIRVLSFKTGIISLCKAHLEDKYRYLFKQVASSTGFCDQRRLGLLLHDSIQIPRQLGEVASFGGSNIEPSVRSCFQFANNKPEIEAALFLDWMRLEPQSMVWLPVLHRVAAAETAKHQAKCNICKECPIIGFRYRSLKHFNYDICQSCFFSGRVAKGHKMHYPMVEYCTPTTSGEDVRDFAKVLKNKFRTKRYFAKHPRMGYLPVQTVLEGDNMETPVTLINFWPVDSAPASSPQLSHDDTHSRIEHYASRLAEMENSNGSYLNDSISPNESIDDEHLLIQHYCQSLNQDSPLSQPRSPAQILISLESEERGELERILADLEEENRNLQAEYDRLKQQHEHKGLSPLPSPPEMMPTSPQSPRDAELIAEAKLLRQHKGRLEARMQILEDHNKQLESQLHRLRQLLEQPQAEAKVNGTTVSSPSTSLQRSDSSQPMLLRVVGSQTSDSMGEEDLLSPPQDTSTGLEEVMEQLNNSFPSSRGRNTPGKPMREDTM
UniProt Q6P158: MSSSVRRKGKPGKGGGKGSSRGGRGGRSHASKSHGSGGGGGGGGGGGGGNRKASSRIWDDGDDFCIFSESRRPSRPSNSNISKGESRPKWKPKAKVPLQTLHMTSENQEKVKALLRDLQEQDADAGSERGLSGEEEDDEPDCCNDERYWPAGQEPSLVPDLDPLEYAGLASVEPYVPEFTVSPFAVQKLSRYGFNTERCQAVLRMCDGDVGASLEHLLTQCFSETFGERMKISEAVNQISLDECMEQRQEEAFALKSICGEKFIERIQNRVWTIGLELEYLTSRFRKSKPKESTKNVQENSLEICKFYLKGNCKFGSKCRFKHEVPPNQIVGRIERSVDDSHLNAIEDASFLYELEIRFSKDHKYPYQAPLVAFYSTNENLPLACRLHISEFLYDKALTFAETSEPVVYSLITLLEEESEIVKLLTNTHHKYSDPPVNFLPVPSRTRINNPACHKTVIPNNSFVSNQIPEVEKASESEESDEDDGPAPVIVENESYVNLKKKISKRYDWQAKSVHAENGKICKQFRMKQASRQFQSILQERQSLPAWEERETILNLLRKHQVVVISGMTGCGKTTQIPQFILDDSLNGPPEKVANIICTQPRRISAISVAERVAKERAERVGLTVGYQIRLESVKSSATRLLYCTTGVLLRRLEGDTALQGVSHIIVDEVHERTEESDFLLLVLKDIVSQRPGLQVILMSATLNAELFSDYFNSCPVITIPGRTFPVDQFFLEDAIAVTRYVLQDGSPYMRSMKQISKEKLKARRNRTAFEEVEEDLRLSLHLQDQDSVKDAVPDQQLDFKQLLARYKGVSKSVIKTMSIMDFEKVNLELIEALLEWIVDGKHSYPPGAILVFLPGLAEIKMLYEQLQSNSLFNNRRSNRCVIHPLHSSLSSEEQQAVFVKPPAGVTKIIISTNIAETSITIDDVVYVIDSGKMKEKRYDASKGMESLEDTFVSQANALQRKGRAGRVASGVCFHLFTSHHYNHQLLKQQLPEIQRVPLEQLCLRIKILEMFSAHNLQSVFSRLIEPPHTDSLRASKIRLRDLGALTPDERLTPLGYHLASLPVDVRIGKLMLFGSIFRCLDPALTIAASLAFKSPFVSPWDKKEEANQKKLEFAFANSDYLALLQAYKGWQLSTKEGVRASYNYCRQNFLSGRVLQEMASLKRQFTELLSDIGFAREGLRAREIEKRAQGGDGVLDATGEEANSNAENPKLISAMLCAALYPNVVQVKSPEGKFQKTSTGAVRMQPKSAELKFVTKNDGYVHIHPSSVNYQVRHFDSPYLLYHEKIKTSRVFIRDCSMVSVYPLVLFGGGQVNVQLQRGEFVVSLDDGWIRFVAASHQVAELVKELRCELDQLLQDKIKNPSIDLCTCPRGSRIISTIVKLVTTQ
UniProt Q8TBM8: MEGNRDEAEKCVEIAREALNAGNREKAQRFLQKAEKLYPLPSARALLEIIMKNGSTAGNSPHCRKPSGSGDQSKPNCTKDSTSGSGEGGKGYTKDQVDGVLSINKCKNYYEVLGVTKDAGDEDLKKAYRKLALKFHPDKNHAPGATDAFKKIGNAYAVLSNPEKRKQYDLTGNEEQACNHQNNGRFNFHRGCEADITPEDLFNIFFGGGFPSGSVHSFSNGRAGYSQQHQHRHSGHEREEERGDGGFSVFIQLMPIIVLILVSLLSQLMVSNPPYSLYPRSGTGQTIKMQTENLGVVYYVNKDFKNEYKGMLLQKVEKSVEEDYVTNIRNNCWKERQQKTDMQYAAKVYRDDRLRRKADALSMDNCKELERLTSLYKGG

What was measured:
Experiment in all cases: log2 fold change, soluble protein after heating vs DMSO (PISA); higher = thermal stabilisation; K562 lysate, 10 uM; active = over 0.2 and 3.5 SD of the protein, either way, in both replicates (recomputed)
lapatinib = compound: CS(=O)(=O)CCNCc1ccc(-c2ccc3ncnc(Nc4ccc(OCc5cccc(F)c5)c(Cl)c4)c3c2)o1 [lapatinib]
Outline: (§1)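 Soluble protein was defined as the supernatant remaining after 21,000xg for 90 min, following pooling of heated aliquots and adjustment to 0.5% NP-40 at 4°C. Before that, crude K562 extract at 1 mg/mL protein in PBS pH 7.4 with 1 mM MgCl2 was treated with 10 μM compound for 30 min and heated for 3 min across 48°C-58°C. Quantification used TMTpro 16plex LC-MS/MS with channel sums equalised, and values are log-two fold changes in thermal stability relative to solvent controls from duplicates.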

pictilisib = compound: CS(=O)(=O)N1CCN(Cc2cc3nc(-c4cccc5[nH]ncc45)nc(N4CCOCC4)c3s2)CC1 [pictilisib]
Outline: as §1

crizotinib = compound: C[C@@H](Oc1cc(-c2cnn(C3CCNCC3)c2)cnc1N)c1c(Cl)ccc(F)c1Cl [crizotinib]
Outline: as §1

[1] = compound: C[C@H](C1=CC=C(C=C1)C(=O)NC2=C3C=CNC3=NC=C2)N
Outline: as §1

duvelisib = compound: C[C@H](Nc1ncnc2nc[nH]c12)c1cc2cccc(Cl)c2c(=O)n1-c1ccccc1 [duvelisib]
Outline: as §1

gandotinib = compound: Cc1cc(Nc2cc(CN3CCOCC3)c3nc(C)c(Cc4ccc(Cl)cc4F)n3n2)n[nH]1 [gandotinib]
Outline: as §1

tozasertib = compound: Cc1cc(Nc2cc(N3CCN(C)CC3)nc(Sc3ccc(NC(=O)C4CC4)cc3)n2)n[nH]1 [tozasertib]
Outline: as §1

doramapimod = compound: Cc1ccc(-n2nc(C(C)(C)C)cc2NC(=O)Nc2ccc(OCCN3CCOCC3)c3ccccc23)cc1 [doramapimod]
Outline: as §1

bafetinib = compound: Cc1ccc(NC(=O)c2ccc(CN3CC[C@H](N(C)C)C3)c(C(F)(F)F)c2)cc1Nc1nccc(-c2cncnc2)n1 [bafetinib]
Outline: as §1

[2] = compound: Cc1cccc(CC(=O)N2CCc3c2ccc(-c2cn(C)c4ncnc(N)c24)c3F)n1
Outline: as §1

nilotinib = compound: Cc1cn(-c2cc(NC(=O)c3ccc(C)c(Nc4nccc(-c5cccnc5)n4)c3)cc(C(F)(F)F)c2)cn1 [nilotinib]
Outline: as §1

[3] = compound: Cc1nc(Nc2n[nH]c3c2CN(C(=O)N[C@H](CN(C)C)c2ccccc2)C3(C)C)c2sccc2n1
Outline: as §1

dasatinib = compound: Cc1nc(Nc2ncc(C(=O)Nc3c(C)cccc3Cl)s2)cc(N2CCN(CCO)CC2)n1 [dasatinib]
Outline: as §1

[4] = compound: Cc1ncc(-c2ccnc(Nc3ccc(S(C)(=O)=O)cc3)n2)n1C(C)C
Outline: as §1

[5] = compound: Cn1cc(-c2ccc3c(c2)CCN3C(=O)Cc2cccc(C(F)(F)F)c2)c2c(N)ncnc21
Outline: as §1

quisinostat = compound: Cn1cc(CNCC2CCN(c3ncc(C(=O)NO)cn3)CC2)c2ccccc21 [quisinostat]
Outline: as §1

tipifarnib = compound: Cn1cncc1[C@@](N)(c1ccc(Cl)cc1)c1ccc2c(c1)c(-c1cccc(Cl)c1)cc(=O)n2C [tipifarnib]
Outline: as §1

[6] = compound: NC(=O)Nc1cc(-c2cccc(F)c2)sc1C(=O)N[C@H]1CCCNC1
Outline: as §1

[7] = compound: NC(=O)c1cnc(N[C@@H]2CCCC[C@@H]2N)nc1Nc1cccc(-n2nccn2)c1
Outline: as §1

[8] = compound: NC1(c2ccc(-c3nc4ccn5c(=O)[nH]nc5c4cc3-c3ccccc3)cc2)CCC1
Outline: as §1

Measured: log2 fold change

DHRS7B (UniProt Q6IAN0)
inactive: lapatinib -0.087 | pictilisib 0.009 | crizotinib -0.072 | [1] -0.041 | duvelisib 0.012 | gandotinib 0.161 | tozasertib -0.027 | doramapimod 0 | bafetinib 0.019 | [2] 0.09 | nilotinib -0.012 | [3] -0.01 | dasatinib 0.116 | [4] -0.006 | [5] 0.039 | quisinostat 0.018 | tipifarnib 0.065 | [6] 0.026 | [7] 0.005 | [8] -0.026

DHX8 (UniProt Q14562)
inactive: lapatinib 0.009 | pictilisib -0.03 | crizotinib 0.023 | [1] -0.079 | duvelisib 0.009 | gandotinib 0.019 | tozasertib 0.058 | doramapimod 0.063 | bafetinib 0.006 | [2] 0.085 | nilotinib -0.038 | [3] -0.086 | dasatinib 0.011 | [4] -0.045 | [5] 0.028 | quisinostat 0.035 | tipifarnib 0.001 | [6] -0.095 | [7] -0.001 | [8] 0.031

DOHH (UniProt Q9BU89)
inactive: lapatinib 0.071 | pictilisib 0.002 | crizotinib -0.01 | [1] 0.062 | duvelisib 0.014 | gandotinib -0.009 | tozasertib 0.003 | doramapimod 0.021 | bafetinib -0.051 | [2] -0.008 | nilotinib 0.057 | [3] -0.014 | dasatinib 0.04 | [4] 0.034 | [5] -0.035 | quisinostat -0.01 | tipifarnib 0.008 | [6] -0.036 | [7] -0.04 | [8] -0.007

Quoted from the results shown (two entries):
DHX8 (UniProt Q14562)
inactive: lapatinib 0.009 | pictilisib -0.03 | crizotinib 0.023 | [1] -0.079 | duvelisib 0.009 | gandotinib 0.019 | tozasertib 0.058 | doramapimod 0.063 | bafetinib 0.006 | [2] 0.085 | nilotinib -0.038 | [3] -0.086 | dasatinib 0.011 | [4] -0.045 | [5] 0.028 | quisinostat 0.035 | tipifarnib 0.001 | [6] -0.095 | [7] -0.001 | [8] 0.031

DOHH (UniProt Q9BU89)
inactive: lapatinib 0.071 | pictilisib 0.002 | crizotinib -0.01 | [1] 0.062 | duvelisib 0.014 | gandotinib -0.009 | tozasertib 0.003 | doramapimod 0.021 | bafetinib -0.051 | [2] -0.008 | nilotinib 0.057 | [3] -0.014 | dasatinib 0.04 | [4] 0.034 | [5] -0.035 | quisinostat -0.01 | tipifarnib 0.008 | [6] -0.036 | [7] -0.04 | [8] -0.007

Continued:

DNAJC3 (UniProt Q13217)
inactive: lapatinib 0.01 | pictilisib -0.015 | crizotinib 0.047 | [1] 0.001 | duvelisib 0.046 | gandotinib 0.012 | tozasertib 0.014 | doramapimod -0.064 | bafetinib -0.002 | [2] -0.014 | nilotinib 0.029 | [3] -0.019 | dasatinib 0.074 | [4] 0.008 | [5] 0.023 | quisinostat 0.11 | tipifarnib -0.085 | [6] -0.055 | [7] 0.012 | [8] 0.005

DMD (UniProt P11532)
inactive: lapatinib -0.014 | pictilisib -0.021 | crizotinib -0.017 | [1] 0.031 | duvelisib -0.003 | gandotinib -0.001 | tozasertib -0.023 | doramapimod 0.007 | bafetinib -0.014 | [2] -0.003 | nilotinib -0.039 | [3] 0.011 | dasatinib -0.019 | [4] 0.001 | [5] 0.016 | quisinostat -0.017 | tipifarnib 0.016 | [6] -0.003 | [7] -0.012 | [8] 0.016

DMTF1 (UniProt Q9Y222)
inactive: lapatinib -0.118 | pictilisib -0.052 | crizotinib 0.012 | [1] -0.044 | duvelisib 0.134 | gandotinib 0.092 | tozasertib -0.021 | doramapimod 0.07 | bafetinib 0.036 | [2] 0.132 | nilotinib 0.049 | [3] 0.028 | dasatinib 0.04 | [4] 0.039 | [5] -0.061 | quisinostat -0.127 | tipifarnib 0.055 | [6] 0.004 | [7] -0.006 | [8] 0.045

DHX57 (UniProt Q6P158)
inactive: lapatinib -0.012 | pictilisib -0.006 | crizotinib -0.033 | [1] -0.007 | duvelisib 0.006 | gandotinib -0.034 | tozasertib -0.024 | doramapimod 0.005 | bafetinib -0.044 | [2] 0.027 | nilotinib -0.042 | [3] 0.023 | dasatinib 0.046 | [4] 0.067 | [5] -0.012 | quisinostat -0.035 | tipifarnib 0.027 | [6] 0.031 | [7] 0 | [8] -0.016

DOK3 (UniProt Q7L591)
inactive: lapatinib -0.024 | pictilisib 0.042 | crizotinib 0.01 | [1] -0.115 | duvelisib 0.02 | gandotinib 0.293 | tozasertib -0.035 | doramapimod -0.003 | bafetinib -0.044 | [2] 0.305 | nilotinib -0.015 | [3] 0.016 | dasatinib -0.046 | [4] 0.18 | [5] 0.057 | quisinostat -0.008 | tipifarnib -0.004 | [6] -0.004 | [7] -0.014 | [8] 0.022

DNAJB11 (UniProt Q9UBS4)
inactive: lapatinib -0.017 | pictilisib 0.001 | crizotinib -0.007 | [1] -0.043 | duvelisib -0.003 | gandotinib 0.03 | tozasertib 0.001 | doramapimod 0.017 | bafetinib -0.013 | [2] 0.044 | nilotinib -0.012 | [3] 0.025 | dasatinib -0.003 | [4] -0.037 | [5] -0.014 | quisinostat -0.05 | tipifarnib -0.025 | [6] -0.014 | [7] -0.018 | [8] -0.026

DLAT (UniProt P10515)
inactive: lapatinib -0.053 | pictilisib 0.001 | crizotinib -0.077 | [1] -0.094 | duvelisib 0.05 | gandotinib 0.027 | tozasertib -0.015 | doramapimod 0.103 | bafetinib -0.14 | [2] 0.033 | nilotinib 0.019 | [3] -0.042 | dasatinib -0.101 | [4] -0.057 | [5] 0.006 | quisinostat -0.135 | tipifarnib -0.002 | [6] 0.02 | [7] 0.017 | [8] -0.025

DLD (UniProt P09622)
inactive: lapatinib -0.003 | pictilisib 0.009 | crizotinib -0.001 | [1] -0.067 | duvelisib -0.012 | gandotinib 0.047 | tozasertib -0.016 | doramapimod -0.001 | bafetinib 0.005 | [2] 0.012 | nilotinib 0.02 | [3] 0.001 | dasatinib 0.003 | [4] 0.011 | [5] -0.022 | quisinostat -0.014 | tipifarnib 0.003 | [6] -0.015 | [7] -0.009 | [8] 0.005

DNAJB14 (UniProt Q8TBM8)
inactive: lapatinib -0.069 | pictilisib -0.032 | crizotinib -0.059 | [1] -0.008 | duvelisib 0.031 | gandotinib 0.033 | tozasertib 0.01 | doramapimod 0.078 | bafetinib 0.031 | [2] -0.11 | nilotinib 0.009 | [3] 0.068 | dasatinib 0.002 | [4] 0.046 | [5] -0.001 | quisinostat -0.065 | tipifarnib -0.035 | [6] 0.006 | [7] 0.051 | [8] -0.042

DNAJB12 (UniProt Q9NXW2)
inactive: lapatinib -0.008 | pictilisib -0.059 | crizotinib -0.005 | [1] 0.103 | duvelisib -0.014 | gandotinib -0.095 | tozasertib -0.031 | doramapimod -0.02 | bafetinib -0.019 | [2] -0.025 | nilotinib -0.094 | [3] 0.095 | dasatinib 0.044 | [4] 0.01 | [5] -0.105 | quisinostat -0.044 | tipifarnib -0.018 | [6] 0.012 | [7] 0.035 | [8] -0.021

DNMT1 isoform 2 (UniProt P26358)
inactive: lapatinib 0.007 | pictilisib 0.012 | crizotinib 0.021 | [1] 0.017 | duvelisib 0.007 | gandotinib -0.012 | tozasertib 0.024 | doramapimod 0.001 | bafetinib 0.026 | [2] -0.044 | nilotinib -0.004 | [3] -0.02 | dasatinib 0.012 | [4] -0.026 | [5] 0.013 | quisinostat 0.042 | tipifarnib 0.024 | [6] -0.019 | [7] -0.007 | [8] 0.041

DNMBP (UniProt Q6XZF7)
inactive: lapatinib -0.119 | pictilisib -0.081 | crizotinib -0.121 | [1] 0.046 | duvelisib 0.008 | gandotinib 0.009 | tozasertib -0.053 | doramapimod -0.043 | bafetinib -0.129 | [2] -0.018 | nilotinib -0.041 | [3] -0.159 | dasatinib -0.066 | [4] 0.223 | [5] 0.002 | quisinostat -0.036 | tipifarnib -0.087 | [6] 0.023 | [7] -0.026 | [8] -0.09

DNAAF5 (UniProt Q86Y56)
inactive: lapatinib -0.03 | pictilisib -0.008 | crizotinib -0.104 | [1] 0.016 | duvelisib 0.021 | gandotinib -0.147 | tozasertib -0.055 | doramapimod 0.024 | bafetinib -0.066 | [2] 0.027 | nilotinib -0.015 | [3] 0.004 | dasatinib -0.118 | [4] -0.024 | [5] 0.007 | quisinostat -0.1 | tipifarnib -0.002 | [6] 0.073 | [7] 0.006 | [8] 0.024
